# Results are given in words; binding and its absence hold for the method and conditions named. Some binding calls cover weakened binding; strength is not graded here. Where a sequence is shown, tags or fusion partners need not be part of it.
# B1: recombinant human superoxide dismutase 3 (rhSOD3), full length, C-terminal His6 tag (enzyme)
# chain: WTGEDSAEPNSDSAEWIRDMYAKVTEIWQEVMQRRDDDGTLHAACQVQPSATLDAAQPRVTGVVLFRQLAPRAKLDAFFALEGFPTEPNSSSRAIHVHQFGDLSQGCESTGPHYNPLAVPHPQHPGDFGNFAVRDGSLWRYRAGLAASLAGPHSIVGRAVVVHAGEDDLGRGGNQASVENGNAGRRLACCVVGVCGPGLWERQAREHSERKKRRRESECKAAHHHHHH
# Biological target: recombinant human superoxide dismutase 3 (rhSOD3), full length, C-terminal His6 tag (human) (UniProt P08294)
# Assay: non-reducing SDS-PAGE of the purified protein (self-association)
binder,measurement,value
B1,binding,binds
